# Results from doi:10.1101/2022.12.22.521673 (bioRxiv, 2022).
# Residue numbers refer to the chain shown, from its start. Numbers in names are those of the source. Like-named read-outs stand apart in the source and are kept apart here. These are yes or no findings as the source states them, for the method shown. Binding seen in cells or lysates may run through a third protein. Some entries that bind do so weakly or less than the wild type. For some assays here: Sequences can lack the tags named with a protein.
# B1: EGFP-Rim4(S367C/T368C) (protein, UniProt P38741 1-713)
# chain: MKTEISTADSLRDPPSNGLKADSELVIREDIDQFLPSEVSSLGSDHQNDGEDSDTDSDNFLQDPEDDVDEESTGRGTVTTTSTSTESRGRPSSCIFVASLAAALSDDELCLSVTENFKKYGDLARVKVLRDNANRPYAFVQYNNDHDAKHALIRAQGTLLNGRRLRCEPAKVNRTLYLKNQQSIDFNEISQICEKFGGLEQIVPDRTDNQYTRRYTYPISSANSWFVQFVYRDDAIRAYANLRTDPNWIIEWAQNINVPKNYNLLHKSKFKSSKYHQNNGIINNDGSNNNDNNNSNNNNREDSRRNGDVIEEECGHVHGSDSEEKLTSDGIYDDEDKDSEITIDKRSIFVGQLDKETTREELNRRFCCHGKIQDINLIFKPTNIFAFIKYETEEAAAAALESENHAIFLNKTMHVQYKEVGGRHNRKFSGKNGGSNFNHHQFFSTRSGKTFTGPELNLAPPPINMYRKMSGGSQQESETMMPYMPMGPMPMGPPPPNAASLSDFDMFPPSYSTFMKGMMPLRRKSMPNSWSSPSSKSVNSENESVNGGDENSELPSEIPESSGRYNAANSFTTYNNSSAGNSNNNNNNNNSNSNKSQYKKRYARRSSYGYNEVPPKPYYFQPYYYHPMQYHMGPMGPLHPSQGSAGNHHPYMMVYPMSPPPPSGLDGSMIPPPINVSQSHAANHGSTHVHANEFISNDTGDINEDNKAYSLDY
# B2: EGFP-Rim4(3C) (protein, UniProt P38741 1-713)
# chain: B1 chain with T216C, C367S, C368T, S525C, S607C
# B3: Bmh1 (natural protein, UniProt P29311 1-267, looked up)
# chain: MSTSREDSVYLAKLAEQAERYEEMVENMKTVASSGQELSVEERNLLSVAYKNVIGARRASWRIVSSIEQKEESKEKSEHQVELICSYRSKIETELTKISDDILSVLDSHLIPSATTGESKVFYYKMKGDYHRYLAEFSSGDAREKATNASLEAYKTASEIATTELPPTHPIRLGLALNFSVFYYEIQNSPDKACHLAKQAFDDAIAELDTLSEESYKDSTLIMQLLRDNLTLWTSDMSESGQAEDQQQQQQHQQQQPPAAAEGEAPK
# B4: EGFP-Rim4(5C) (protein, UniProt P38741 1-713)
# chain: B1 chain with T216C, S525C, S607C
# Tests used:
# [1] = molecular target: Bmh1-FLAG (pBMH1: Bmh1-FLAG) (S. cerevisiae) (UniProt P29311); assay: co-IP
# [2] = molecular target: Bmh1/2-EGFP-6×His (S. cerevisiae) (UniProt P29311+P34730); assay: pull-down
# [3] = molecular target: Bmh1-FLAG (pBMH1: Bmh1-FLAG) (S. cerevisiae) (UniProt P29311); assay: co-IP; remark: listed apart in the source
binding [1],binding [2],further results,Molecule
binds,,,Bmh2 (from UniProt P34730 1-273)
,binds,,B1
,,binding [3]: binds weakly,B2
binds,,,B3
,no binding,,B4
